From PubChem BioAssay AID758 (NMMLSC, 2007)
Out of some 190,000 compounds screened, about 110 (0.058%) were called active. The shares of active, inactive and inconclusive entries below differ from those in the screen.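 The calls were made as follows: active = fluorescent GTP binding to Rab7 beads changed by at least 20 points from the 100% baseline, either direction, mostly lower; inconclusive = compound itself probably fluorescent, or too few beads counted; inactive = the rest.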

Each molecule was assayed on Rab7 GTPase wild type (dog), Bodipy-FL-GTP binding (assay: modulators of GTP binding to Rab7, primary screen, biochemical, wildtype, multiplex bead flow cytometry (AID 758;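 also: median green fluorescence of bound Bodipy-FL-GTP per Rab7 bead population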)). Settings: GST-Rab7 beads, fluorescent GTP binding, at 10 µM, actives lie on both sides, untreated = 100%, excess cold GTP = 0%.
`CC(=O)C(Sc1ncnc2sc3c(c12)CCCC3)C(C)=O` was tested, and the GTP binding activity (percent of control) was inconclusive: 96%.
For `COc1ccc(C(=O)Nc2cc(Cl)ccc2OC(=O)c2ccc(OC)cc2)cc1`, the GTP binding activity (percent of control) was inactive: 97%.
`COc1ccc(OC)c(NC(=O)c2ccno2)c1` was tested, and the GTP binding activity (percent of control) was inactive: 104%.
With `O=[N+]([O-])c1cc(Cc2ccccc2)cc(C=Nc2ccc(N3CCOCC3)cc2)c1O` the GTP binding activity (percent of control) was active: 71%.
With `COc1ccccc1-n1cc([C@@H]2C[C@H]3CN(c4ccccc4)C(=O)[C@]34CCCN24)cn1` the GTP binding activity (percent of control) was inconclusive: 134%.
With `CCNC(=O)COC(=O)c1ccc(S(=O)(=O)N2CCCCCC2)cc1` the GTP binding activity (percent of control) was inconclusive: 105%.
`Cc1ccc(NC(=O)CSc2nnc(/N=C/N(C)C)s2)cc1` was tested, and the GTP binding activity (percent of control) was inactive: 100%.
`COc1cccc(CNC(=O)C2CCN(S(=O)(=O)c3ccc4c(c3)CCC(=O)N4)CC2)c1` was tested, and the GTP binding activity (percent of control) was inconclusive: 88%.
In the case of `O=C(Cn1cnc2ccccc2c1=O)NCCC(=O)Nc1ccc2c(c1)OCCO2`, the GTP binding activity (percent of control) is reported as inconclusive: 103%.
For `CCOc1cc(/C=C2\C(=O)N(Cc3ccc(C)cc3)C(C)=C2C(=O)OC)ccc1O`, the GTP binding activity (percent of control) was inconclusive: 104%.
For `COc1ccc(OC)c(NC(=O)CN(C)S(=O)(=O)c2ccc(Cl)cc2)c1`, the GTP binding activity (percent of control) was inactive: 97%.
`COc1ccc(NC(=O)c2cc3c(=O)n4ccccc4nc3n2C)cc1OC` was tested, and the GTP binding activity (percent of control) was inactive: 97%.
`Cc1nn(C)cc1/C=N/NC(=O)c1ccc2c(c1)OCO2` was tested, and the GTP binding activity (percent of control) was inconclusive: 101%.
`Cc1nn(Cc2ccccc2)c(Cl)c1C(=O)OC(C)C#N` (stereo unspecified) was tested, and the GTP binding activity (percent of control) was inactive: 92%.
`CCc1ccc(C2NC(=S)NC3=C2C(=O)CC(C)(C)C3)cc1` (stereo unspecified) was tested, and the GTP binding activity (percent of control) was inactive: 101%.
`CCOc1ccc(NC(=O)NC(C)CC)cc1` (stereo unspecified) was tested, and the GTP binding activity (percent of control) was inconclusive: 100%.
`COc1ccccc1-c1ccc(SCC(=O)NCCc2ccccc2)nn1` was tested, and the GTP binding activity (percent of control) was inconclusive: 94%.
For `CCCn1c(=N)c(C(=O)NCc2ccc3c(c2)OCO3)cc2c(=O)n3cccc(C)c3nc21`, the GTP binding activity (percent of control) was inconclusive: 89%.
In the case of `CC1=CC(=C(C#N)C#N)C=C(C)N1CCC(C)C`, the GTP binding activity (percent of control) is reported as inactive: 106%.
For `Cc1ccc(-c2nn(-c3ccccc3)cc2NC(=O)CCl)cc1`, the GTP binding activity (percent of control) was inactive: 89%.
With `CCCCNC(=O)C1CCN(S(=O)(=O)c2c(C)noc2/C=C\c2ccc(OC)cc2)CC1` the GTP binding activity (percent of control) was inactive: 99%.
With `C/C(=N\NC(=O)OC(C)(C)C)c1ccc(-n2ccnc2)cc1` the GTP binding activity (percent of control) was inconclusive: 101%.
With `Cc1ccc(-n2cccc2/C=C2\C(=N)N3N=C(c4ccco4)SC3=NC2=O)cc1` the GTP binding activity (percent of control) was inconclusive: 86%.
In the case of `Cc1cc2cc(C)c3nnc(SCC(=O)NCc4ccc5c(c4)OCO5)n3c2cc1C`, the GTP binding activity (percent of control) is reported as inconclusive: 94%.
With `CC[C@@H](C)[C@H](NC(=O)C1CCN(C(=O)[C@@H](NS(=O)(=O)c2ccc(C)cc2)C(C)C)CC1)C(=O)O` the GTP binding activity (percent of control) was inconclusive: 106%.
With `CCC(C)NC(=O)CN(C)S(=O)(=O)c1ccc2c(c1)c(=O)n(C)c(=O)n2C` (stereo unspecified) the GTP binding activity (percent of control) was inconclusive: 100%.
`CN1C(=O)c2ccccc2C(C(=O)NCCCN2CCCC2)C1c1c[nH]c2ccccc12` (stereo unspecified) was tested, and the GTP binding activity (percent of control) was inconclusive: 102%.
In the case of `CC(C)CCOc1cccc(OCC(=O)O)c1`, the GTP binding activity (percent of control) is reported as inconclusive: 545%.
For `Cn1cnnc1SCC(=O)c1ccc(O)c(O)c1`, the GTP binding activity (percent of control) was inactive: 102%.
`O=C(CSc1nnc(-c2ccncc2)n1Cc1ccco1)c1ccc(Cl)cc1` was tested, and the GTP binding activity (percent of control) was inconclusive: 101%.
In the case of `c1ccc2oc(-c3ccc(Nc4nc(N5CCCCC5)nc(N5CCOCC5)n4)cc3)nc2c1`, the GTP binding activity (percent of control) is reported as inconclusive: 90%.
With `CC1CC(NC(=O)C2(C)CC2(Cl)Cl)CC(C)(C)C1` (stereo unspecified) the GTP binding activity (percent of control) was inconclusive: 101%.
`O=c1oc2ccc3ccccc3c2cc1-c1nnc(-c2cccs2)o1` was tested, and the GTP binding activity (percent of control) was inconclusive: 97%.
With `COc1ccc(CCNC(=O)CCCCCNc2nc(=S)[nH]c3ccccc23)cc1OC` the GTP binding activity (percent of control) was inactive: 101%.
With `COc1ccc(/C(C)=N/NC(=O)c2sccc2-n2cccc2)cc1` the GTP binding activity (percent of control) was inactive: 98%.
For `COc1ccc(C2=NOC(C(=O)NCc3ccco3)C2)cc1OC` (stereo unspecified), the GTP binding activity (percent of control) was inconclusive: 92%.
In the case of `O=C(CN1C(=O)C2C3C=CC(C3)C2C1=O)NC1CCCc2ccccc21` (stereo unspecified), the GTP binding activity (percent of control) is reported as inconclusive: 106%.
For `Cc1cccn2c(CNCC3(c4ccccc4)CCCC3)c(C(=O)N3CCOCC3)nc12`, the GTP binding activity (percent of control) was inactive: 97%.
With `O=C(CSc1nnc(SCc2ccccc2)s1)N/N=C/c1c(Cl)cccc1Cl` the GTP binding activity (percent of control) was inconclusive: 97%.
With `CCOC(=O)c1c(NC(=O)COC(=O)c2ccc(O)cc2)sc(C(=O)N(C)C)c1C` the GTP binding activity (percent of control) was inconclusive: 101%.
`O=[N+]([O-])c1cc2oc3c(c2c(C=NCc2ccccc2)c1O)CCCC3` was tested, and the GTP binding activity (percent of control) was active: 78%.
In the case of `O=C(c1cc2nc(-c3ccco3)cc(C(F)(F)F)n2n1)N1CCCc2ccccc21`, the GTP binding activity (percent of control) is reported as inconclusive: 88%.
`COc1ccc(NC(=O)CSc2n[nH]c(C)c2[N+](=O)[O-])cc1` was tested, and the GTP binding activity (percent of control) was inconclusive: 92%.
In the case of `CN(C)S(=O)(=O)Nc1ccccc1F`, the GTP binding activity (percent of control) is reported as inconclusive: 98%.
`Cc1cccc(NC(=O)COC(=O)c2cccc3c2C(=O)c2ccccc2C3=O)c1C` was tested, and the GTP binding activity (percent of control) was inconclusive: 92%.
For `COC(=O)c1cc(C(=O)OCC(=O)N(C)C2CCS(=O)(=O)C2)cc([N+](=O)[O-])c1` (stereo unspecified), the GTP binding activity (percent of control) was inconclusive: 94%.
